In the supplement of paper PMC9578143, “Small-Molecule Ebselen Binds to YTHDF Proteins Interfering with the Recognition of N^6-Methyladenosine-Modified RNAs” (ACS Pharmacology & Translational Science, 2022):
Some of the results follow. Plates or batches differ in their baseline, so values are only roughly comparable.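 Hits were defined as a z-score below −3.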

Target: T1, YTHDF1 YTH domain (aa 365-554) (UniProt Q9BYJ9)
T1 sequence (whole entry): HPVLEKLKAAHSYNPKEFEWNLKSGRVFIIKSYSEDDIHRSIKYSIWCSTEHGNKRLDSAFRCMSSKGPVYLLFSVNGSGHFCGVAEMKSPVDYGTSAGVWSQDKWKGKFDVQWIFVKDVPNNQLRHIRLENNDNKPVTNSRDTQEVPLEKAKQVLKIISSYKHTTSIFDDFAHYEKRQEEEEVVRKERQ
Test: tryptophan fluorescence intensity z-score (mean); higher = higher fluorescence, less quenching (negative = binding / quenching)
Conditions: 10 µM

Tryptophan fluorescence intensity z-score, inactive:
CC(=O)O[C@@H]1C=C[C@]2(C)C(C[C@@H](OC(C)=O)[C@]3(C)C4=CC(=O)O[C@H](c5ccoc5)[C@@]4(C)CCC23)C1(C)C (some centres not stated) (plate: M 13-14) 0.17
CCOc1ccc2nc(S(N)(=O)=O)sc2c1 (plate: M 11-12) 0.266
c1coc(CNc2ncnc3[nH]cnc23)c1 (plate: M 17-18) 0.154
CC(=O)Oc1cc(-c2coc3cc(OC(C)=O)c(OC(C)=O)c(OC(C)=O)c3c2=O)cc(OC(C)=O)c1OC(C)=O (plate: M 15-16) -0.837
Cc1cc2c(s1)Nc1ccccc1N=C2N1CCN(C)CC1 (plate: M 9-10) -0.185
CC1(C)C(O[C@@H]2OC[C@@H](O)[C@H](O)[C@H]2O)CC[C@]23CC24CC[C@]2(C)[C@@H]([C@@]5(C)CC[C@@H](C(C)(C)O)O5)[C@H](O)C[C@@]2(C)C4C[C@@H](O[C@@H]2O[C@H](CO)[C@@H](O)[C@H](O)[C@H]2O)C13 (some centres not stated) (plate: M 19-20) 0.358
CC=CC1=C(C(=O)O)N2C(=O)[C@@H](NC(=O)[C@H](N)c3ccc(O)cc3)[C@H]2SC1 (plate: M 11-12) -0.617
COC(=O)c1c(C)cc(OC)cc1O (plate: M 15-16) 0.465
NC(=O)CC[C@H](N)C(=O)O (plate: M 17-18) 0.424
NC(=O)CC[C@H](N)C(=O)O (plate: M 1-2) 0.424
O=C1c2ccccc2C(=O)C1c1ccc(Br)cc1 (plate: M 11-12) 0.46
CC(C)OC(=O)C(C)(C)Oc1ccc(C(=O)c2ccc(Cl)cc2)cc1 (plate: M 7-8) -0.0437
CN1CCCN=C1/C=C/c1cccc(O)c1 (plate: M 11-12) 0.132
CC(N)CCCC(C)(C)O (configuration not stated) (plate: M 23-24) 0.346
C=C1CCC(C2CC(=O)OC2=O)C(=O)CCC2C1CC2(C)C (configuration not stated) (plate: M 17-18) 0.223
Oc1cccc(O)c1 (plate: M 5-6) -0.479
CC(=O)N(c1onc(C)c1C)S(=O)(=O)c1ccc(N)cc1 (plate: M 11-12) -0.932
Cc1cc(O)cc(C)c1Cl (plate: M 1-2) 0.17
COc1ccc2c(c1)CC[C@@H]1[C@@H]2CC[C@]2(C)[C@@H](O)CC[C@@H]12 (plate: M 21-22) 0.0582
COc1cccc2c1C(=O)c1c(O)c3c(c(O)c1C2=O)C[C@@](O)(C(=O)CO)C[C@@H]3O[C@H]1C[C@H](N)[C@@H](O)[C@H](C)O1 (plate: M 11-12) -0.554
C/C=C/c1ccc(OC)cc1 (plate: M 9-10) -0.363
C=C(C)[C@@H]1CC[C@]2(CO)CC[C@]3(C)[C@H](CC[C@@H]4[C@@]5(C)CC[C@H](O)C(C)(C)[C@@H]5CC[C@]43C)[C@@H]12 (plate: M 17-18) 0.527
O[C@H]1[C@H](O)[C@@H](O)[C@H](O)[C@@H](O)[C@H]1O (plate: M 3-4) -0.1
CC(=O)O[C@H]1C(=O)[C@@]2(C)[C@H]([C@H](OC(=O)c3ccccc3)[C@]3(O)C[C@H](OC(=O)[C@H](O)[C@@H](NC(=O)c4ccccc4)c4ccccc4)C(C)=C1C3(C)C)[C@]1(OC(C)=O)CO[C@@H]1C[C@@H]2O (plate: M 9-10) -0.612
NC(=O)c1cnccn1 (plate: M 5-6) -0.0403
CC(=O)c1ccc[nH]1 (plate: M 21-22) -0.283
O=C(CCNNC(=O)c1ccncc1)NCc1ccccc1 (plate: M 11-12) -0.017
Cc1nc2ccccn2c(=O)c1CCN1CCC(C(=O)c2ccc(F)cc2)CC1 (plate: M 9-10) -0.397
O=c1n(CCCN2CCN(c3cccc(Cl)c3)CC2)nc2ccccn12 (plate: M 7-8) 0.0704
CC1/C(=N/O)C[C@@H]2C[C@H]1C2(C)C (some centres not stated) (plate: M 21-22) 0.393
CC1(C)S[C@@H]2[C@H](NC(=O)[C@H](N)c3ccccc3)C(=O)N2[C@H]1C(=O)O (plate: M 1-2) 0.368
O=C(/C=C/c1ccccc1)c1ccc(O[C@@H]2O[C@H](CO)[C@@H](O)[C@H](O)[C@H]2O)cc1O (plate: M 15-16) 0.0238
C=C[C@H]1CN2CC[C@H]1C[C@H]2[C@H](O)c1ccnc2ccc(OC)cc12 (plate: M 5-6) -0.159
COc1ccc([C@@H](C)C(=O)c2ccc(O)cc2O)cc1 (plate: M 15-16) 0.178
CC1=C(/C=C/C(C)=C/C=C/C(C)=C/CO)C(C)(C)CCC1 (plate: M 7-8) 0.251
C/C=C(/C(=C/C)c1ccc(O)cc1)c1ccc(O)cc1 (plate: M 1-2) 0.626
Cc1ncc([N+](=O)[O-])n1CC(C)O (configuration not stated) (plate: M 23-24) 0.11
O=C(O)c1ccccc1OP(=O)(O)O (plate: M 23-24) 0.264
COC(=O)c1c(C)cc(OC(=O)c2c(C)cc(O)c(C=O)c2O)c(C)c1O (plate: M 15-16) -0.0857
Nc1cc(N2CCCCC2)nc(N)[n+]1[O-] (plate: M 3-4) 0.114
C[N+](C)(C)CC(O)CC(=O)O (configuration not stated) (plate: M 17-18) 0.748
CC(=O)NS(=O)(=O)c1ccc(N)cc1 (plate: M 5-6) 0.147
OCc1ccccc1O[C@@H]1O[C@H](CO)[C@@H](O)[C@H](O)[C@H]1O (plate: M 7-8) 0.0838
C=CC1=C(C(=O)O)N2C(=O)[C@@H](NC(=O)/C(=N\O)c3csc(N)n3)[C@H]2SC1 (plate: M 9-10) -0.513
O=C(O[C@@H]1Cc2c(O)cc(O)cc2O[C@@H]1c1cc(O)c(=O)c2c(O)c(O)cc([C@H]3Oc4cc(O)cc(O)c4C[C@H]3OC(=O)c3cc(O)c(O)c(O)c3)c2c1)c1cc(O)c(O)c(O)c1 (plate: M 15-16) -1.38
COc1cccc2c1C(=O)c1c(O)c3c(c(O)c1C2=O)C[C@@](O)(C(C)=O)C[C@@H]3O[C@H]1C[C@H](N)[C@H](O)[C@H](C)O1 (plate: M 1-2) -0.16
Oc1ccc([C@H]2Oc3cc(O)cc(O)c3C[C@H]2O)cc1 (plate: M 15-16) 0.435
CC(=O)CC(c1ccccc1)c1c(O)c2ccccc2oc1=O (configuration not stated) (plate: M 5-6) -0.456
NS(=O)(=O)c1cc2c(cc1Cl)NC(C1CC3C=CC1C3)NS2(=O)=O (configuration not stated) (plate: M 9-10) -0.0975
O=C1NS(=O)(=O)c2ccccc21 (plate: M 7-8) 0.0378
NC(=O)NCCC[C@H](N)C(=O)O (plate: M 17-18) 0.36
O=c1oc2c(O)c(O)cc3c(=O)oc4c(O)c(O)cc1c4c23 (plate: M 19-20) 0.339
CC(=O)OCC(=O)[C@@]12OC(C)(C)O[C@@H]1C[C@H]1[C@@H]3C[C@H](F)C4=CC(=O)C=C[C@]4(C)[C@@]3(F)[C@@H](O)C[C@@]12C (plate: M 3-4) -0.00504
c1ccc2c(CC3=NCCN3)cccc2c1 (plate: M 3-4) 0.248
CCN(CC)CC(=O)Nc1c(C)cccc1C (plate: M 5-6) 0.0118
COc1cc(OC)c2c(c1Cl)O[C@@]1(C(=O)CC(=O)C[C@H]1C)C2=O (plate: M 15-16) -0.287
Cc1cc(O)c(C=O)c(O)c1C(=O)O (plate: M 17-18) -0.00516
CC[C@@H]1C(=O)OC[C@@H]1Cc1cncn1C (plate: M 13-14) 0.691
CN1C(=O)CC[C@H]1c1cccnc1 (plate: M 13-14) 0.676
COc1ccc(-c2coc3c(O)c(O)c(OC)cc3c2=O)cc1 (plate: M 21-22) 0.0368
Cc1c(NC(=O)c2cccnc2)c(=O)n(-c2ccccc2)n1C (plate: M 21-22) 0.421
O=C(/C=C/c1ccc(O)cc1)c1ccc(O)cc1O (plate: M 19-20) -0.089
CS(=O)(=O)OCCCCOS(C)(=O)=O (plate: M 1-2) 0.114
NC(=O)CCCCC1CCSS1 (configuration not stated) (plate: M 13-14) 0.0921
NS(=O)(=O)c1cc2c(cc1C(F)(F)F)NCNS2(=O)=O (plate: M 3-4) -0.146
CC(O)Cn1cnc2c1c(=O)n(C)c(=O)n2C (configuration not stated) (plate: M 23-24) 0.523
CCC1(C)OC(=O)N(C)C1=O (configuration not stated) (plate: M 13-14) 0.513
N[C@@H](Cc1c[nH]c2ccccc12)C(=O)O (plate: M 5-6) 0.549
O=C(OOC(=O)c1ccccc1)c1ccccc1 (plate: M 7-8) 0.305
COC1=CC(=O)C(C(=O)c2ccccc2)=CC1=O (plate: M 15-16) 0.275
Nc1c2ccccc2nc2ccccc12 (plate: M 5-6) 0.229
CN1CCC(=C2c3ccccc3Sc3ccccc32)CC1 (plate: M 21-22) 0.235

Random excerpt: 3 records from the list.
Tryptophan fluorescence intensity z-score, inactive:
CC(=O)c1ccc[nH]1 (plate: M 21-22) -0.283
O=C(O)c1ccccc1OP(=O)(O)O (plate: M 23-24) 0.264
COc1ccc(-c2coc3c(O)c(O)c(OC)cc3c2=O)cc1 (plate: M 21-22) 0.0368
